According to patent US20240218022A1, “ANTI-VISTA MACROCYCLIC PEPTIDES AND COMPOSITIONS” (BRISTOL-MYERS SQUIBB COMPANY, priority 2022, published 2024):
pIC50: −log10 of the molar value. Where two headings read alike, the source gives them in different places. For at least one compound, name, drawing or mass did not settle the structure. Starred links: 1 amine or outer side, 2 acyl side, 3 side chain; linkers in the order of their positions; H or OH if unused. Positions of bridges follow the written chain, without caps; N, C: chain ends. Non-standard residues stand in square brackets, D forms with d. Residues, ends and D or L forms follow the SMILES beside them. Pro(4R-OPh) = O=C(O)[C@@H]1C[C@@H](Oc2ccccc2)CN1; Phe(2,4-F2) = N[C@@H](Cc1ccc(F)cc1F)C(=O)O; Phe(4-I) = N[C@@H](Cc1ccc(I)cc1)C(=O)O; γGlu = O=C(O)[C@H](CCC(=O)[*:2])N[*:1]; 2Nal = N[C@@H](Cc1ccc2ccccc2c1)C(=O)O; βAsp = O=C(O)[C@H](CC(=O)[*:2])N[*:1]; Bta = N[C@@H](Cc1csc2ccccc12)C(=O)O; Tic = O=C(O)[C@@H]1Cc2ccccc2CN1; Cit = NC(=O)NCCC[C@H](N)C(=O)O; Ahp(2) = CCCCC[C@H](N)C(=O)O; NMeNle = CCCC[C@H](NC)C(=O)O; Tle = CC(C)(C)[C@H](N)C(=O)O; NMeS = CN[C@@H](CO)C(=O)O; NHexGly = CCCCCCNCC(=O)O; Nle = CCCC[C@H](N)C(=O)O; Aun = NCCCCCCCCCCC(=O)O; AEEA = NCCOCCOCC(=O)O

Target: T1, mouse VISTA (mVISTA) (Mus musculus, UniProt Q9D659)
T1 construct: expressed in transfected cells; host or cells: Human embryonic kidney 293T cells
T1 sequence (Q9D659 33-308): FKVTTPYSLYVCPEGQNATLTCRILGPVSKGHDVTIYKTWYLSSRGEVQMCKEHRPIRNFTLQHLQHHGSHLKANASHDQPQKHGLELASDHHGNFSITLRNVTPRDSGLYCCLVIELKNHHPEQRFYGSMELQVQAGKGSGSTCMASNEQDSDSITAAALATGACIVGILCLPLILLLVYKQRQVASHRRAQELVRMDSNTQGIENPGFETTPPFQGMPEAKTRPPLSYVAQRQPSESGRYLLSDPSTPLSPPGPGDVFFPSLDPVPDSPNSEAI
Assay: Cell-Based Binding High-Content Assay For mVISTA (HC CBA mVISTA)
In short: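 This high-content binding assay uses HEK293T cells expressing murine VISTA, measuring displacement of 2 nM biotinylated peptide by fluorescent streptavidin imaging. IC50 values come from four-parameter logistic fitting.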

[1] = cell-based binding high-content assay, read-out: HC CBA miPrISTA IC50
[2] = the 20th table, scaffold drawing 23, read-out: HC CBA mVISTA IC50

With `CCCCCCN1CC(=O)N[C@@H](Cc2ccc(O)cc2)C(=O)N[C@@H](CCCCC)C(=O)NCC(=O)N[C@@H](CCCNC(=N)N)C(=O)N[C@@H](CC(C)C)C(=O)N[C@@H](CCCCC)C(=O)N2CCC[C@H]2C(=O)N[C@@H](C(C)C)C(=O)N[C@@H](CO)C(=O)N[C@H](C(=O)NCCOCCOCC(=O)N[C@@H](CCC(=O)O)C(=O)NCCOCCOCC(=O)NCCCCCCCCCCC(=O)O)CSCC(=O)N[C@@H](Cc2ccccc2)C(=O)N[C@@H](Cc2ccc(O)cc2)C(=O)N[C@@H](CC(=O)O)C1=O` [compound 2296] ({CH2CO}-FYD[NHexGly]Y[Ahp(2)]GRL[Ahp(2)]PVSC[AEEA]E[AEEA][Aun]-OH; thioether N-14) as the compound, how does the pIC50 [1] read?
The pIC50 was 7.44.

`CCCCCCN1CC(=O)N[C@@H](Cc2ccc(O)cc2)C(=O)N[C@@H](CCCC)C(=O)N[C@@H](CC(N)=O)C(=O)N[C@@H](CCCNC(=N)N)C(=O)N(C)[C@@H](CCCC)C(=O)N[C@@H](CCCCC)C(=O)N2CCC[C@@H]2C(=O)N[C@@H](C(C)C)C(=O)N[C@@H](CC(=O)O)C(=O)N[C@H](C(=O)NCC(=O)N[C@@H](CC(=O)NCCOCCOCC(=O)N[C@@H](CC(=O)O)C(=O)NCCOCCOCC(=O)NCCCCCCCCCCC(=O)O)C(=O)O)CSCC(=O)N[C@@H](Cc2ccc3ccccc3c2)C(=O)N[C@@H](Cc2c[nH]c3ccccc23)C(=O)N[C@@H](CC(=O)O)C1=O` [compound 2109] ({CH2CO}-[2Nal]WD[NHexGly]Y[Nle]NR[NMeNle][Ahp(2)][dP]VDCG[βAsp][AEEA]D[AEEA][Aun]-OH; thioether N-14) was tested. Which pIC50 (read-out: HC CBA mVISTA IC50) did it give?
Its pIC50 is 7.56.

How did the pIC50 (read-out: HC CBA mVISTA IC50) turn out when `CCCCCCN1CC(=O)N[C@@H](Cc2ccc(O)cc2)C(=O)N[C@@H](CCCC)C(=O)N[C@@H](CC(N)=O)C(=O)N[C@@H](CCCNC(=N)N)C(=O)N2Cc3ccccc3C[C@H]2C(=O)N[C@@H](CCCCC)C(=O)N2CCC[C@H]2C(=O)N[C@@H](C(C)C)C(=O)N[C@@H](CC(=O)O)C(=O)N[C@H](C(=O)N[C@@H](CC(=O)NCCOCCOCC(=O)NCCCCCCCCCCC(=O)O)C(=O)O)CSCC(=O)N[C@@H](Cc2ccc3ccccc3c2)C(=O)N[C@@H](Cc2ccc(O)cc2)C(=O)N[C@@H](CC(=O)O)C1=O` [Example 2152] ({CH2CO}-[2Nal]YD[NHexGly]Y[Nle]NR[Tic][Ahp(2)]PVDC[βAsp][AEEA][Aun]-OH; thioether N-14) was run?
Its pIC50 is 7.65.

How did the pIC50 [1] turn out when `CCCCCCN1CC(=O)N[C@@H](Cc2ccc(O)cc2)C(=O)N[C@@H](CCCC)C(=O)N[C@@H](CC(N)=O)C(=O)N[C@@H](CCCNC(=N)N)C(=O)N[C@@H](CC(C)C)C(=O)N[C@@H](CCCCC)C(=O)N2CCC[C@H]2C(=O)N[C@@H](C(C)C)C(=O)N[C@@H](CO)C(=O)N[C@H](C(=O)NCCOCCOCC(=O)N[C@@H](CCC(=O)O)C(=O)NCCOCCOCC(=O)NCCCCCCCCCCC(=O)O)CSCC(=O)N[C@@H](Cc2ccc3ccccc3c2)C(=O)N[C@@H](Cc2ccc(O)cc2)C(=O)N[C@@H](CC(=O)O)C1=O` [compound 2303] ({CH2CO}-[2Nal]YD[NHexGly]Y[Nle]NRL[Ahp(2)]PVSC[AEEA]E[AEEA][Aun]-OH; thioether N-14) was run?
The pIC50 was 8.00.

`CCCCCCN1CC(=O)N[C@@H](Cc2ccc(O)cc2)C(=O)N[C@@H](CC(C)C)C(=O)N[C@@H](CC(N)=O)C(=O)N[C@@H](CCCNC(=N)N)C(=O)N[C@@H](CC(C)C)C(=O)N[C@@H](CCCCC)C(=O)N2CCC[C@H]2C(=O)N[C@@H](C(C)C)C(=O)N[C@@H](C(C)C)C(=O)N[C@H](C(=O)NCC(=O)O)CSCC(=O)N[C@@H](Cc2ccc(F)cc2F)C(=O)N[C@@H](Cc2c[nH]c3ccccc23)C(=O)N[C@@H](CC(=O)O)C1=O` [compound 1465] ({CH2CO}-[Phe(2,4-F2)]WD[NHexGly]YLNRL[Ahp(2)]PVVCG-OH; thioether N-14) was tested. Which pIC50 [2] did it give?
The pIC50 was 8.49.

How did the pIC50 (read-out: HC CBA mVISTA IC50) turn out when `CCCCCCN1CC(=O)N[C@@H](Cc2ccc(O)cc2)C(=O)N[C@@H](CCCC)C(=O)N[C@@H](CC(N)=O)C(=O)N[C@@H](CCCNC(=N)N)C(=O)N[C@@H](CC(C)C)C(=O)N[C@@H](CCCCC)C(=O)N2CCC[C@H]2C(=O)N[C@@H](C(C)C)C(=O)N[C@@H](CC(=O)O)C(=O)N[C@H](C(=O)NCC(=O)O)CSCC(=O)N[C@@H](Cc2csc3ccccc23)C(=O)N[C@@H](Cc2ccc(O)cc2)C(=O)N[C@@H](CC(=O)O)C1=O` [compound 1151] ({CH2CO}-[Bta]YD[NHexGly]Y[Nle]NRL[Ahp(2)]PVDCG-OH; thioether N-14) was run?
Its pIC50 is 8.24.

How did the pIC50 (read-out: HC CBA mVISTA IC50) turn out when `CCCCCCN1CC(=O)N[C@@H](Cc2ccc(O)cc2)C(=O)N[C@@H](CCCC)C(=O)N[C@@H](CC(N)=O)C(=O)N[C@@H](CCCNC(N)=O)C(=O)N(C)[C@@H](CCCC)C(=O)N[C@@H](CCCCC)C(=O)N2C[C@H](Oc3ccccc3)C[C@H]2C(=O)N[C@@H](C(C)C)C(=O)N[C@@H](CO)C(=O)N[C@H](C(=O)NCC(N)=O)CSCC(=O)N[C@@H](Cc2ccccc2)C(=O)N[C@@H](Cc2c[nH]c3ccccc23)C(=O)N[C@@H](CC(=O)O)C1=O` [compound 1142] ({CH2CO}-FWD[NHexGly]Y[Nle]N[Cit][NMeNle][Ahp(2)][Pro(4R-OPh)]VSCG-NH2; thioether N-14) was run?
The pIC50 was 7.42.

How did the pIC50 (cell-based binding high-content assay, read-out: HC CBA mVISTA IC50) turn out when `CCCCCCN1CC(=O)N[C@@H](Cc2ccc(O)cc2)C(=O)N[C@@H](CCCC)C(=O)N[C@@H](CC(N)=O)C(=O)N[C@@H](CCCNC(=N)N)C(=O)N(C)[C@@H](CCCC)C(=O)N[C@@H](CCCCC)C(=O)N2CCC[C@H]2C(=O)N[C@@H](C(C)(C)C)C(=O)N[C@@H](CO)C(=O)N[C@H](C(=O)NCC(=O)NCCOCCOCC(=O)N[C@@H](CCC(=O)NCCOCCOCC(=O)NCCCCCCCCCCC(=O)O)C(=O)O)CSCC(=O)N[C@@H](Cc2ccccc2)C(=O)N[C@@H](Cc2c[nH]c3ccccc23)C(=O)N[C@@H](CC(=O)O)C1=O` [compound 2332] ({CH2CO}-FWD[NHexGly]Y[Nle]NR[NMeNle][Ahp(2)]P[Tle]SCG[AEEA][γGlu][AEEA][Aun]-OH; thioether N-14) was run?
Its pIC50 is 7.65.

With `CCCCCCN1CC(=O)N[C@@H](Cc2ccc(O)cc2)C(=O)N[C@@H](C(C)C)C(=O)NCC(=O)N[C@@H](CCCNC(=N)N)C(=O)N[C@@H](CC(C)C)C(=O)N[C@@H](CCCCC)C(=O)N2CCC[C@H]2C(=O)N[C@@H](C(C)C)C(=O)N[C@@H](CC(=O)O)C(=O)N[C@H](C(=O)NCC(=O)O)CSCC(=O)N[C@@H](Cc2ccc(I)cc2)C(=O)N[C@@H](Cc2ccc(O)cc2)C(=O)N[C@@H](CC(=O)O)C1=O` [compound 1463] ({CH2CO}-[Phe(4-I)]YD[NHexGly]YVGRL[Ahp(2)]PVDCG-OH; thioether N-14) as the compound, how does the pIC50 [2] read?
Its pIC50 is 7.64.

With `CCCCCCN1CC(=O)N[C@@H](Cc2ccc(O)cc2)C(=O)N[C@@H](CC(C)C)C(=O)N[C@@H](CC(N)=O)C(=O)N[C@@H](CCCNC(=N)N)C(=O)N(C)[C@@H](CO)C(=O)N[C@@H](CCCCC)C(=O)N2CCC[C@H]2C(=O)N[C@@H](C(C)(C)C)C(=O)N[C@@H](CO)C(=O)N[C@H](C(=O)N[C@@H](CC(=O)NCCOCCOCC(=O)N[C@@H](CC(=O)O)C(=O)NCCOCCOCC(=O)NCCCCCCCCCCC(=O)O)C(=O)O)CSCC(=O)N[C@@H](Cc2ccccc2)C(=O)N[C@@H](Cc2c[nH]c3ccccc23)C(=O)N[C@@H](CC(=O)O)C1=O` [compound 2025] ({CH2CO}-FWD[NHexGly]YLNR[NMeS][Ahp(2)]P[Tle]SC[βAsp][AEEA]D[AEEA][Aun]-OH; thioether N-14) as the compound, how does the pIC50 (cell-based binding high-content assay, mVISTA, read-out: HC CBA miPr ISTA IC50) read?
Its pIC50 is 7.46.
